Reference: patent US6617127B2, “Synthesis and recovery of aspartame involving enzymatic deformylation step” (Holland Sweetener Company, V.O.F., priority 1998, dated 2003)
Some results were stated once for a whole list of compounds, not compound by compound. Residues, ends and D or L forms follow the SMILES beside them. *: point of attachment. For = O=C*

Biological target: T1, EC 3.5.1.27 PDF (Fe^2+) enzyme (Escherichia coli, UniProt P0A6K3)
T1 construct: made in house; host or cells: E. coli (overproducing cells)
T1 sequence (P0A6K3 1-169): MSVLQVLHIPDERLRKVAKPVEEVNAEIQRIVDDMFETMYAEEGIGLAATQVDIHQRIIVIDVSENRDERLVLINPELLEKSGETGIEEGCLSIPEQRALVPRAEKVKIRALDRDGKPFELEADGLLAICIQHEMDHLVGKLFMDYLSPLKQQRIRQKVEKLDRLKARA
Assay: Deformylation reactions with PDF (Fe^2+), free amino compound determined by TNBS
Assay type: biochemical, E. coli
Conditions: continued beyond 10 hours
Description: An EC 3.5.1.27 PDF (Fe^2+) enzyme was isolated from overproducing E. coli cells grown at 30° C. in 1.6 l TB medium for 14-16 hours. […] After washing with 120 ml of 20 mM Hepes/KOH, 100 mM KF, 0.2 mM TCEP, pH 7.7, the PDF (Fe^2+) was eluted with 150 ml 20 mM Hepes/KOH, 100 mM KCl, 0.2 mM TCEP, pH 7.7. […] After adjustment of the TCEP concentration to 1 mM and protein concentration to 40 mg/ml PDF (Fe^2+) was stored frozen at −60° C.
Compounds (100 mM) as indicated in Table 2 for each separate Example were incubated in the presence of 100 mM aqueous 2-(N-morpholino)-ethanesulphonic acid (MES)/KOH buffer pH=6.2 and 250 mM KCl at 37° C. […] Following a brief centrifugation, the amount of deformylated compounds in the supernatant was determined by trinitrobenzene sulphonic acid (TNBS) according to the method of Fields (Methods in Enzymology, 25, 464-468 (1972)), using ε420=21.2 mM^−1 cm^−1. The amount of (deformylated) compound each time was corrected for the intrinsic amount of free amino compound which was detected without incubation with the PDF. […]
In addition, the catalytic properties of the PDF in the deformylation reactions of F-α-AP and F-α-APM (in particular the initial reaction rates for deformylation in resp. 1 hour for F-α-APM and 3 hours for F-α-AP) were determined by performing the reactions of Examples 1 and 2 at various substrate concentrations from 2-140 mM. […]

| Compound | conversion when the deformylation reaction is continued |
| --- | --- |
| O=CN[C@@H](CC(=O)O)C(=O)N[C@@H](Cc1ccccc1)C(=O)O [F-α-AP, N-formyl-α-L-aspartyl-L-phenylalanine] (For-Asp-Phe-OH) | more than 90% |
| COC(=O)[C@H](Cc1ccccc1)NC(=O)[C@H](CC(=O)O)NC=O [F-α-APM, N-formyl-α-L-aspartyl-L-phenylalanine methyl ester] (For-Asp-Phe-OMe) | more than 90% |
